# Test results: PubChem BioAssay AID188 (DTP/NCI, 2004)
# The mice bore no tumour; each value counts animals alive of those treated. Survivors were counted at the toxicity check, usually on the fifth day, unless a day is given; later deaths do not show. Schedule codes are those of the source, taken here to give the interval after Q, in days (D) or hours (H), and the number of doses after X.
# System: CD2F1 mice, nontumored, toxicity/survival
# Test: NCI In Vivo Anticancer Drug Screen. Data for tumor model Nontumored Animals (Toxicity Test) in CD2F1 (CDF1) mice
# [1] = dose: 1.0 mg/kg/injection, schedule: Q01DX001 (ip), vehicle: saline with Tween-80
# [2] = dose: 10.0 mg/kg/injection, schedule: Q01DX001 (ip), vehicle: saline with Tween-80
# [3] = dose: 100.0 mg/kg/injection, schedule: Q01DX001 (ip), vehicle: saline with Tween-80
# [4] = dose: 1.0 mg/kg/injection, schedule: Q01DX001 (ip), vehicle: water
# [5] = dose: 10.0 mg/kg/injection, schedule: Q01DX001 (ip), vehicle: water
# [6] = dose: 100.0 mg/kg/injection, schedule: Q01DX001 (ip), vehicle: water
smiles,measurement,setting,value
CC(C)CCCCCCCCCCCCC(=O)NCC(=O)NC1C(O)C(O)C(Nc2ncnc3nc[nH]c23)OC1C(O)CO (configuration not stated),survivor count,"dose: 0.06 mg/kg/injection, schedule: Q01DX009 (ip), vehicle: Klucel (hydroxypropylcellulose) (HPC)",8 of 8
same,survivor count,"dose: 0.13 mg/kg/injection, schedule: Q01DX009 (ip), vehicle: Klucel (hydroxypropylcellulose) (HPC)",8 of 8
same,survivor count,"dose: 0.25 mg/kg/injection, schedule: Q01DX009 (ip), vehicle: Klucel (hydroxypropylcellulose) (HPC)",8 of 8
same,survivor count,"dose: 0.25 mg/kg/injection, schedule: Q03HX008 (ip), vehicle: Klucel (hydroxypropylcellulose) (HPC)",8 of 8
same,survivor count,"dose: 0.25 mg/kg/injection, schedule: Q03HX016 (ip), vehicle: Klucel (hydroxypropylcellulose) (HPC)",8 of 8
same,survivor count,"dose: 0.25 mg/kg/injection, schedule: Q03HX024 (ip), vehicle: Klucel (hydroxypropylcellulose) (HPC)",8 of 8
same,survivor count,"dose: 0.5 mg/kg/injection, schedule: Q01DX009 (ip), vehicle: Klucel (hydroxypropylcellulose) (HPC)",8 of 8
same,survivor count,"dose: 0.5 mg/kg/injection, schedule: Q01DX009 (oral), vehicle: Klucel (hydroxypropylcellulose) (HPC)",8 of 8
same,survivor count,"dose: 0.5 mg/kg/injection, schedule: Q03HX008 (ip), vehicle: Klucel (hydroxypropylcellulose) (HPC)",8 of 8
same,survivor count,"dose: 0.5 mg/kg/injection, schedule: Q03HX016 (ip), vehicle: Klucel (hydroxypropylcellulose) (HPC)",8 of 8
same,survivor count,"dose: 0.5 mg/kg/injection, schedule: Q03HX024 (ip), vehicle: Klucel (hydroxypropylcellulose) (HPC)",8 of 8
same,survivor count,"dose: 1.0 mg/kg/injection, schedule: Q01DX009 (ip), vehicle: Klucel (hydroxypropylcellulose) (HPC)",8 of 8
same,survivor count,"dose: 1.0 mg/kg/injection, schedule: Q01DX009 (oral), vehicle: Klucel (hydroxypropylcellulose) (HPC)",8 of 8
same,survivor count,"dose: 1.0 mg/kg/injection, schedule: Q03HX008 (ip), vehicle: Klucel (hydroxypropylcellulose) (HPC)",8 of 8
same,survivor count,"dose: 1.0 mg/kg/injection, schedule: Q03HX016 (ip), vehicle: Klucel (hydroxypropylcellulose) (HPC)",8 of 8
same,survivor count,"dose: 1.0 mg/kg/injection, schedule: Q03HX024 (ip), vehicle: Klucel (hydroxypropylcellulose) (HPC)",8 of 8
same,survivor count,"dose: 2.0 mg/kg/injection, schedule: Q01DX001 (ip), vehicle: Klucel (hydroxypropylcellulose) (HPC)",8 of 8
same,survivor count,"dose: 2.0 mg/kg/injection, schedule: Q01DX009 (oral), vehicle: Klucel (hydroxypropylcellulose) (HPC)",8 of 8
same,survivor count,"dose: 2.0 mg/kg/injection, schedule: Q03HX008 (ip), vehicle: Klucel (hydroxypropylcellulose) (HPC)",8 of 8
same,survivor count,"dose: 2.0 mg/kg/injection, schedule: Q03HX016 (ip), vehicle: Klucel (hydroxypropylcellulose) (HPC)",8 of 8
same,survivor count,"dose: 2.0 mg/kg/injection, schedule: Q03HX024 (ip), vehicle: Klucel (hydroxypropylcellulose) (HPC)",8 of 8
same,survivor count,"dose: 2.0 mg/kg/injection, schedule: Q04DX003 (ip), vehicle: Klucel (hydroxypropylcellulose) (HPC)",8 of 8
same,survivor count,"dose: 2.0 mg/kg/injection, schedule: Q08DX002 (ip), vehicle: Klucel (hydroxypropylcellulose) (HPC)",8 of 8
same,survivor count,"dose: 4.0 mg/kg/injection, schedule: Q01DX001 (ip), vehicle: Klucel (hydroxypropylcellulose) (HPC)",8 of 8
same,survivor count,"dose: 4.0 mg/kg/injection, schedule: Q01DX009 (oral), vehicle: Klucel (hydroxypropylcellulose) (HPC)",8 of 8
same,survivor count,"dose: 4.0 mg/kg/injection, schedule: Q04DX003 (ip), vehicle: Klucel (hydroxypropylcellulose) (HPC)",8 of 8
same,survivor count,"dose: 4.0 mg/kg/injection, schedule: Q08DX002 (ip), vehicle: Klucel (hydroxypropylcellulose) (HPC)",8 of 8
same,survivor count,"dose: 8.0 mg/kg/injection, schedule: Q01DX001 (ip), vehicle: Klucel (hydroxypropylcellulose) (HPC)",8 of 8
same,survivor count,"dose: 8.0 mg/kg/injection, schedule: Q04DX003 (ip), vehicle: Klucel (hydroxypropylcellulose) (HPC)",8 of 8
same,survivor count,"dose: 8.0 mg/kg/injection, schedule: Q08DX002 (ip), vehicle: Klucel (hydroxypropylcellulose) (HPC)",8 of 8
same,survivor count,"dose: 16.0 mg/kg/injection, schedule: Q01DX001 (ip), vehicle: Klucel (hydroxypropylcellulose) (HPC)",8 of 8
same,survivor count,"dose: 16.0 mg/kg/injection, schedule: Q01DX001 (oral), vehicle: Klucel (hydroxypropylcellulose) (HPC)",8 of 8
same,survivor count,"dose: 16.0 mg/kg/injection, schedule: Q04DX003 (ip), vehicle: Klucel (hydroxypropylcellulose) (HPC)",8 of 8
same,survivor count,"dose: 16.0 mg/kg/injection, schedule: Q08DX002 (ip), vehicle: Klucel (hydroxypropylcellulose) (HPC)",8 of 8
same,survivor count,"dose: 32.0 mg/kg/injection, schedule: Q01DX001 (oral), vehicle: Klucel (hydroxypropylcellulose) (HPC)",8 of 8
same,survivor count,"dose: 64.0 mg/kg/injection, schedule: Q01DX001 (oral), vehicle: Klucel (hydroxypropylcellulose) (HPC)",8 of 8
same,survivor count,"dose: 128.0 mg/kg/injection, schedule: Q01DX001 (oral), vehicle: Klucel (hydroxypropylcellulose) (HPC)",8 of 8
N#Cc1ccccc1C(C#N)c1ccc([N+](=O)[O-])cc1 (configuration not stated),survivor count,[1],2 of 2
same,survivor count,[2],2 of 2
same,survivor count,[3],2 of 2
Nc1ncc2ccccc2c1-c1ccc(NC(=O)CN(CCCl)CCCl)cc1,survivor count,"dose: 1.0 mg/kg/injection, schedule: Q01DX001 (ip), vehicle: other",2 of 2
same,survivor count,"dose: 10.0 mg/kg/injection, schedule: Q01DX001 (ip), vehicle: other",2 of 2
same,survivor count,"dose: 100.0 mg/kg/injection, schedule: Q01DX001 (ip), vehicle: other",2 of 2
CN(C)CC(=O)c1ccc(O)c(O)c1,survivor count,"dose: 8.0 mg/kg/injection, schedule: Q03HX024 (ip), vehicle: saline",8 of 8
same,survivor count,"dose: 16.0 mg/kg/injection, schedule: Q03HX008 (ip), vehicle: saline",8 of 8
same,survivor count,"dose: 16.0 mg/kg/injection, schedule: Q03HX016 (ip), vehicle: saline",8 of 8
same,survivor count,"dose: 16.0 mg/kg/injection, schedule: Q03HX024 (ip), vehicle: saline",8 of 8
same,survivor count,"dose: 32.0 mg/kg/injection, schedule: Q03HX008 (ip), vehicle: saline",8 of 8
same,survivor count,"dose: 32.0 mg/kg/injection, schedule: Q03HX016 (ip), vehicle: saline",8 of 8
same,survivor count,"dose: 32.0 mg/kg/injection, schedule: Q03HX024 (ip), vehicle: saline",8 of 8
same,survivor count,"dose: 64.0 mg/kg/injection, schedule: Q01DX009 (ip), vehicle: saline",8 of 8
same,survivor count,"dose: 64.0 mg/kg/injection, schedule: Q01DX009 (sc), vehicle: saline",8 of 8
same,survivor count,"dose: 64.0 mg/kg/injection, schedule: Q03HX008 (ip), vehicle: saline",8 of 8
same,survivor count,"dose: 64.0 mg/kg/injection, schedule: Q03HX016 (ip), vehicle: saline",8 of 8
same,survivor count,"dose: 64.0 mg/kg/injection, schedule: Q03HX024 (ip), vehicle: saline",8 of 8
same,survivor count,"dose: 64.0 mg/kg/injection, schedule: Q04DX003 (ip), vehicle: saline",8 of 8
same,survivor count,"dose: 128.0 mg/kg/injection, schedule: Q01DX001 (ip), vehicle: saline",8 of 8
same,survivor count,"dose: 128.0 mg/kg/injection, schedule: Q01DX001 (oral), vehicle: saline",8 of 8
same,survivor count,"dose: 128.0 mg/kg/injection, schedule: Q01DX001 (sc), vehicle: saline",8 of 8
same,survivor count,"dose: 128.0 mg/kg/injection, schedule: Q01DX009 (ip), vehicle: saline",8 of 8
same,survivor count,"dose: 128.0 mg/kg/injection, schedule: Q01DX009 (oral), vehicle: saline",8 of 8
same,survivor count,"dose: 128.0 mg/kg/injection, schedule: Q01DX009 (sc), vehicle: saline",8 of 8
same,survivor count,"dose: 128.0 mg/kg/injection, schedule: Q03HX008 (ip), vehicle: saline",8 of 8
same,survivor count,"dose: 128.0 mg/kg/injection, schedule: Q03HX016 (ip), vehicle: saline",8 of 8
same,survivor count,"dose: 128.0 mg/kg/injection, schedule: Q04DX003 (ip), vehicle: saline",8 of 8
same,survivor count,"dose: 128.0 mg/kg/injection, schedule: Q08DX002 (ip), vehicle: saline",8 of 8
same,survivor count,"dose: 256.0 mg/kg/injection, schedule: Q01DX001 (ip), vehicle: saline",8 of 8
same,survivor count,"dose: 256.0 mg/kg/injection, schedule: Q01DX001 (oral), vehicle: saline",8 of 8
same,survivor count,"dose: 256.0 mg/kg/injection, schedule: Q01DX001 (sc), vehicle: saline",8 of 8
same,survivor count,"dose: 256.0 mg/kg/injection, schedule: Q01DX009 (ip), vehicle: saline",8 of 8
same,survivor count,"dose: 256.0 mg/kg/injection, schedule: Q01DX009 (oral), vehicle: saline",8 of 8
same,survivor count,"dose: 256.0 mg/kg/injection, schedule: Q01DX009 (sc), vehicle: saline",8 of 8
same,survivor count,"dose: 256.0 mg/kg/injection, schedule: Q04DX003 (ip), vehicle: saline",8 of 8
same,survivor count,"dose: 256.0 mg/kg/injection, schedule: Q08DX002 (ip), vehicle: saline",8 of 8
same,survivor count,"dose: 512.0 mg/kg/injection, schedule: Q01DX001 (ip), vehicle: saline",8 of 8
same,survivor count,"dose: 512.0 mg/kg/injection, schedule: Q01DX001 (oral), vehicle: saline",8 of 8
same,survivor count,"dose: 512.0 mg/kg/injection, schedule: Q01DX001 (sc), vehicle: saline",8 of 8
same,survivor count,"dose: 512.0 mg/kg/injection, schedule: Q01DX009 (ip), vehicle: saline",8 of 8
same,survivor count,"dose: 512.0 mg/kg/injection, schedule: Q01DX009 (oral), vehicle: saline",8 of 8
same,survivor count,"dose: 512.0 mg/kg/injection, schedule: Q01DX009 (sc), vehicle: saline",8 of 8
same,survivor count,"dose: 512.0 mg/kg/injection, schedule: Q04DX003 (ip), vehicle: saline",8 of 8
same,survivor count,"dose: 512.0 mg/kg/injection, schedule: Q08DX002 (ip), vehicle: saline",8 of 8
same,survivor count,"dose: 1024.0 mg/kg/injection, schedule: Q01DX001 (ip), vehicle: saline",5 of 8
same,survivor count,"dose: 1024.0 mg/kg/injection, schedule: Q01DX001 (oral), vehicle: saline",8 of 8
same,survivor count,"dose: 1024.0 mg/kg/injection, schedule: Q01DX001 (sc), vehicle: saline",8 of 8
same,survivor count,"dose: 1024.0 mg/kg/injection, schedule: Q01DX009 (ip), vehicle: saline",2 of 8
same,survivor count,"dose: 1024.0 mg/kg/injection, schedule: Q01DX009 (oral), vehicle: saline",8 of 8
same,survivor count,"dose: 1024.0 mg/kg/injection, schedule: Q08DX002 (ip), vehicle: saline",7 of 8
Nc1nc(Br)c2ccccc2c1-c1ccc([N+](=O)[O-])cc1,survivor count,[1],2 of 2
same,survivor count,[2],2 of 2
same,survivor count,[3],2 of 2
Nc1nc(N)c2nc(CSc3ccc(C(=O)NC(CCC(=O)O)C(=O)O)cc3)cnc2n1 (configuration not stated),survivor count,[4],2 of 2
same,survivor count,[5],2 of 2
same,survivor count,[6],2 of 2
COc1ccc2c(c1OC(C)=O)-c1cc(OC(C)=O)cc3c1C(C2)NCC3 (configuration not stated),survivor count,[4],2 of 2
same,survivor count,[5],2 of 2
same,survivor count,[6],0 of 2
